Test results published in patent US20090275648A1, “MACROCYCLIC GHRELIN RECEPTOR ANTAGONISTS AND INVERSE AGONISTS AND METHODS OF USING THE SAME” (priority 2005, published 2009).

Chains of the proteins cited; added tags and fusions are not shown.
UniProt Q92847, whole entry: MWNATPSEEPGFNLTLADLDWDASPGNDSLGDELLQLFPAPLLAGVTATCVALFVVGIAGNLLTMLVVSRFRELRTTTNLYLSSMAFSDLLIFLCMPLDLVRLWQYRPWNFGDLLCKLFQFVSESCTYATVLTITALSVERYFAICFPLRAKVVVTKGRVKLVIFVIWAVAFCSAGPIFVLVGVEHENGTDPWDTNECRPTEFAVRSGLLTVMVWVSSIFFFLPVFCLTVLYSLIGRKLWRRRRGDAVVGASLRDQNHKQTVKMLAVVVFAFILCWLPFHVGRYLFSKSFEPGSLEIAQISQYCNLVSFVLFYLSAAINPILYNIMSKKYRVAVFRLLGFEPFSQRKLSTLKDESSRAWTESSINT

Columns and labels:
[1] = target: human ghrelin receptor (hGHS-R1a) (Homo sapiens, UniProt Q92847); assay: Competitive radioligand binding assay (ghrelin receptor), [125I]-ghrelin, GHS-R/HEK 293 membranes; details: read-out: Activity (Ki,), competition with [125I]-ghrelin
[2] = target: ghrelin receptor (Homo sapiens, UniProt Q92847); assay: Aequorin functional assay (ghrelin receptor), Example 3; details: read-out: Activity (IC50); antagonist testing vs ghrelin at EC80 (3.7 nM)

Ki [1]: 0.1 to 1 µM | IC50 [2]: > 1.5 µM
SMILES: CCC(C)[C@@H]1NCCOc2ccccc2/C=C\CNC(=O)[C@@H](Cc2ccccc2)NC(=O)[C@H](C(C)O)N(C)C1=O (some centres unmarked)

Structures were worked out from names or drawings and are uncertain.
